Data taken from patent US20050180956A1, “SSAO enzyme substrates for vasorelaxation, and methods of use thereof” (priority 2004, published 2005).
At least one read-out could not be matched to a standard name with certainty.

Test system: human left internal mammary artery (LIMA)
Assay: Vascular ring physiology, isolated human left internal mammary artery rings
Conditions: MA 1 mmol/L or ACh 1 μmol/L; n=9 each; mean ± SE

SMILES: CN [methylamine]
- mean relaxation half time (t1/2), NE-precontracted LIMA: 2.332 ± 0.597 min
